These are yes or no findings as the source states them, for the method shown. Some binding calls cover weakened binding; strength is not graded here.
Biological target: human VEGFR2 (KDR) expressed on 293/KDR cells (human) (UniProt P35968)
Test: competition flow cytometry on 293/KDR cells, 1 µg/mL Biotin-AB1 plus 20- or 200-fold unlabelled AB1 [panel Unlabelled AB1]

Chains of the proteins cited; added tags and fusions are not shown. Lines headed by an entry give the natural chain unless they say otherwise; changes in a name come on top.
UniProt P35968: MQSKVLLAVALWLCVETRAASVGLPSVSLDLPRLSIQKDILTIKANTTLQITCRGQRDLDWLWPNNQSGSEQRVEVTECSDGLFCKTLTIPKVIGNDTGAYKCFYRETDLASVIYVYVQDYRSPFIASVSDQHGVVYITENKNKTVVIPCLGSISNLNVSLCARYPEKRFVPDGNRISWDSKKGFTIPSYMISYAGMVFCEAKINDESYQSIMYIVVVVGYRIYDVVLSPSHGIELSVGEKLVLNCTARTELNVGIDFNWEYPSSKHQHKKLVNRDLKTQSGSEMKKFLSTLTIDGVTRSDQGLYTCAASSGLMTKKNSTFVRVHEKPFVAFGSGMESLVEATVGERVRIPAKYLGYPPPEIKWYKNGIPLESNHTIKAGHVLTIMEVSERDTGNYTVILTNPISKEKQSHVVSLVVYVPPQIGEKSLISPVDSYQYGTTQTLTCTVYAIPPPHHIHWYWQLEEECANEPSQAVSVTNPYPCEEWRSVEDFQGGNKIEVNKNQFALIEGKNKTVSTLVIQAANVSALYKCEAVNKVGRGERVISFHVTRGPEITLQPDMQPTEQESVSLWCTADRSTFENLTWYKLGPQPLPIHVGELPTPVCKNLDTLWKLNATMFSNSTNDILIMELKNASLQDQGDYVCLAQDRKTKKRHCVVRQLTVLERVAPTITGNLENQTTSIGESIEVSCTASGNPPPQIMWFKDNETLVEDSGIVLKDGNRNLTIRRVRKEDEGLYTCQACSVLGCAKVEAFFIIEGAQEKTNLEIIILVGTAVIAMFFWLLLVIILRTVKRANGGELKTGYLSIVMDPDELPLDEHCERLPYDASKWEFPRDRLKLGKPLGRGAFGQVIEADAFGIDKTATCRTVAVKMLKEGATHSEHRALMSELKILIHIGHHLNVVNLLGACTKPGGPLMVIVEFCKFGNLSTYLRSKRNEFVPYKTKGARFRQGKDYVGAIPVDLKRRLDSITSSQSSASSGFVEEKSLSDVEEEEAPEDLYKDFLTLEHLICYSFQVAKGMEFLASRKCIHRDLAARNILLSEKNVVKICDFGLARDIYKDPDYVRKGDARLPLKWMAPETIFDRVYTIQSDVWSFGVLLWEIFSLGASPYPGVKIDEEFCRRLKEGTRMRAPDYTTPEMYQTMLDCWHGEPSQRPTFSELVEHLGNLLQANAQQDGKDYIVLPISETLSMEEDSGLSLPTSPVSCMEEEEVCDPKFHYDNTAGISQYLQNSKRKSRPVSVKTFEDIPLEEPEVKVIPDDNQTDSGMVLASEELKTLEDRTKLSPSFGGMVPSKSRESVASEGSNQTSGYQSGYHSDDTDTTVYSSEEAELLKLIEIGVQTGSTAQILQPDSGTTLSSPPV

- binding: binds
B1: free AB1 antibody (unlabelled competitor in FIG. 8A) (VHH)
VHH: QVQLVESGGGLVQAGGSLRLSCAASGRAFSSYAMGWFRQAPGKERELVAAISWSDDSTYYANSVKGRFTISRDNAKSAVYLQMNSLKPEDTAVYYCAAHKSLQRPDEYTYWGQGTQVTVSS

From patent US20180244784A1
